According to PubChem BioAssay AID662 (National Center for Advancing Translational Sciences (NCATS), 2007):
Some of the results follow. The main result of the screen is listed elsewhere. These columns were measured beside it and carry no call. The list favours compounds with an active or inconclusive main result. Potencies come from curve fits of mixed quality, noted in brackets.

Assay: Cell signaling CRE-BLA (Fsk stim)
Conditions: CHO CRE-bla reporter (cAMP response element driving beta-lactamase), forskolin EC10, beta-lactamase ratio; measured here: 460 nm blue channel
How it was run: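 qHTS titration format; CRE-bla CHO reporter; stimulus EC10 NKH 477, a water-soluble forskolin. Read: CCF4 460/530 nm ratio. Potency expressed as AC50 for activators or inhibitors.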

Structure (SMILES) | AC50
Cc1cc2c(=O)n(CC(=O)NCC(=O)N3CCN(Cc4ccccc4)CC3)cnc2s1 | 0.501 µM [falling, full curve]
O=C(NCc1cccs1)c1cnc2sccn2c1=O | 10 µM [rising, single point]
CC(=O)NC(CCS(C)(=O)=O)C(=O)Nc1c(F)cccc1F (centres undefined) | 1.26 µM [falling, partial curve]
Cc1ccc(S(=O)(=O)N2CCCCC2C(=O)NCc2ccco2)cc1 (centres undefined) | 3.98 µM [falling, partial curve, poor fit]
COC(=O)CSc1nnnn1-c1ccccc1 | 5.01 µM [falling, single point]
C(=C\c1ccccc1)/CN1CCN(c2ncnc3c2oc2ccccc23)CC1 | 10 µM [falling, partial curve]
CC(C)(C)n1ncc2c(=O)n(CC(=O)N3CCCc4ccccc43)cnc21 | 25.1 µM [rising, partial curve]
COc1ccc(-c2nnn(CC(=O)N(Cc3cccs3)C(C)C(=O)NC3CCCC3)n2)cc1OC (centres undefined) | 10 µM [rising, single point]
NS(=O)(=O)c1ccc(CCNC(=O)NC2(C(F)(F)F)Oc3ccccc3O2)cc1 | 10 µM [falling, single point]
COc1ccc(N2CCN(CCNC(=O)c3c(C)cc(=O)oc3C)CC2)cc1 | 0.158 µM [rising, partial curve, poor fit]
O=C(NCc1ccco1)c1cc2ccccc2c(=O)o1 | 12.6 µM [falling, partial curve]
CCOC(=O)c1nnn(CC(=O)Nc2ccccc2OC)c1C(=O)OCC | 20 µM [falling, partial curve, poor fit]
O=C(NCC1CCCO1)C1CCN(S(=O)(=O)c2cccnc2)CC1 (centres undefined) | 0.0501 µM [falling, full curve, poor fit]
CCN(CC)S(=O)(=O)c1ccc2c(c1)nc(SCc1nc3ccsc3c(=O)[nH]1)n2CC | 5.01 µM [rising, partial curve]
COC(=O)c1[nH]c2cc(C)ccc2c1NC(=O)CN1CCN(C(=O)c2ccco2)CC1 | 2.51 µM [falling, full curve]
CN(c1ccc(C(=O)NCCC2=CCCCC2)cc1)S(C)(=O)=O | 0.631 µM [rising, single point]
c1ccc(Cn2c(SCc3cn4cccnc4n3)nnc2-c2ccco2)cc1 | 10 µM [rising, partial curve]
COC(=O)CNC(=O)c1cn(CC(C)C)c(=O)c2cc(OC)c(OC)cc12 | 10 µM [rising, single point]
COCCn1c(=O)c(C)nc2cnc(Nc3ccccc3)nc21 | 10 µM [rising, partial curve]
O=C(CSc1nnc(-c2ccc(O)cc2)n1Cc1ccco1)N1CCc2ccccc2C1 | 31.6 µM [falling, single point]
Cc1nnc(NC2=NCCC2)o1 | 12.6 µM [rising, single point]
CCOC(=O)CON1C(=O)C(C)(C)N(OCC(=O)OCC)C(=O)C1(C)C | 0.398 µM [rising, partial curve]
COC1=Cc2c(ccc3ccc(=O)oc23)OC1(C)C | 10 µM [rising, single point]

Structure (SMILES) | AC50
CC1(C)CC(=O)C(C=NCCN2CCNC2=O)=C(O)C1 | 0.00316 µM [falling, full curve, poor fit]
O=C(O)CNS(=O)(=O)c1ccc(Br)s1 | 0.316 µM [falling, partial curve]
CC1CCCCN1C(=O)COc1ccc(NC(=O)c2ccco2)cc1 (centres undefined) | 0.251 µM [falling, full curve]
CCCCCSc1nc2c(c(=O)[nH]c(=O)n2C)n1CCc1ccccc1 | 2.51 µM [rising, full curve]
CCCC(c1nnnn1C(C)(C)CC)N(CCCO)Cc1cc2cc(C)cc(C)c2[nH]c1=O (centres undefined) | 0.316 µM [falling, partial curve]
Oc1ccc(N=Cc2ccc(-c3cccs3)s2)cc1 | 0.316 µM [rising, partial curve]
Cc1ccc(NC(=O)COC(=O)C2=COCCO2)cc1 | 5.01 µM [falling, single point]
Cc1cc(C)nc(N2CCN(c3ncnc4c3oc3ccccc34)CC2)n1 | 5.01 µM [falling, partial curve]
CNC1=C(Cl)C(=O)c2ccncc2C1=O | 10 µM [falling, single point]
CC1(c2ccc(Cl)cc2Cl)OCC(Cn2ccnc2)O1 (centres undefined) | 10 µM [rising, single point]
COc1nc(Nc2cccc(C(F)(F)F)c2)nc(OC)n1 | 10 µM [rising, partial curve]
CCOC(=O)c1c(C)n(C)c2ccc(OCC(O)CN3C(=O)c4ccccc4S3(=O)=O)cc12 (centres undefined) | 3.98 µM [rising, partial curve]
O=C1c2[nH]nc(-c3ccccc3O)c2C(c2ccccc2)N1Cc1ccco1 (centres undefined) | 20 µM [falling, single point]
CCSc1nnc(NC(=O)Cc2ccc(OC)c(S(=O)(=O)N3CCOCC3)c2)s1 | 25.1 µM [rising, single point]
COC(=O)c1cccc(Oc2nc3c(c(=O)n(C)c(=O)n3C)n2C(C)C)c1 | 2 µM [rising, full curve]
CC(C)Cn1c(SCC#N)nc2ccccc2c1=O | 0.251 µM [rising, full curve]
CCCOc1c(OC)cccc1C1CC(=O)Nc2cc3c(cc21)OCO3 (centres undefined) | 12.6 µM [rising, partial curve]
COc1cccc(N2CC(O)=C(c3nc4ccccc4c(=O)[nH]3)C2=N)c1 | 10 µM [rising, partial curve]
Cc1ccc(CNc2cc(-c3nn4c(C)nnc4s3)ccc2C)s1 | 0.794 µM [rising, full curve]
CC1CN(Cc2nc3c(c(=O)n(C)c(=O)n3C)n2CCN2CCOCC2)CC(C)O1 (centres undefined) | 7.94 µM [falling, partial curve]
Cn1cc(-c2nc3cnc(N4CCNCC4)nc3n(CCc3ccccc3)c2=O)c2ccccc21 | 2 µM [rising, full curve]
CCCCCOc1ccc(N2C(=O)CC(N(O)c3ccccc3)C2=O)cc1 (centres undefined) | 5.01 µM [falling, partial curve]
Cc1csc2c(C#N)c(=O)c3c(n12)CCC3 | 6.31 µM [rising, single point]

Structure (SMILES) | AC50
Cc1noc(C)c1-c1nc(Nc2ccncc2)c2ccccc2n1 | 3.98 µM [rising, partial curve]
CC(=O)c1c(N(C)C)ccnc1C(F)(F)F | 0.631 µM [rising, partial curve]
Cc1nn(-c2ccccc2C(=O)O)c(=O)c2ccccc12 | 3.16 µM [rising, single point]
Cc1ccc(CNC(=O)c2cc3c(=O)n(C)c4ccccc4c3n2C)o1 | 3.98 µM [rising, partial curve]
CC(C)(C)n1ncc2c(=O)n(CC(=O)NCc3ccco3)cnc21 | 15.8 µM [rising, single point]
CCOC(=O)c1sc(NC(=O)C(CC)Sc2nnc3c4ccccc4n(CC)c3n2)nc1C (centres undefined) | 3.16 µM [rising, full curve]
O=C(O)CCC(=O)Nc1ccc(N2CCOCC2)cc1 | 1.26 µM [falling, partial curve]
COc1ccccc1C(=O)Nc1ccc(S(=O)(=O)N2CCCC2)cc1 | 10 µM [rising, single point]
COc1ccc(C(c2sc3nc(C)nn3c2O)N2CCN(CCO)CC2)cc1OC (centres undefined) | 10 µM [falling, single point]
Cc1nc2n(n1)C(c1ccccc1)C1=C(CC(c3ccco3)CC1=O)N2 (centres undefined) | 12.6 µM [rising, partial curve]
Cc1cc(Nc2ccc(F)cc2Cl)n2ncnc2n1 | 10 µM [rising, single point]
Cn1c(C(=O)N2CCN(Cc3ccc4c(c3)OCO4)CC2)cc2c(=O)n(C)c3ccccc3c21 | 5.01 µM [rising, partial curve]
CCCc1ccc2c(N)c(C#N)sc2n1 | 10 µM [rising, partial curve]
COc1cccc(NC=C2C(=O)OC(C)(C)OC2=O)c1 | 0.00316 µM [falling, full curve]
COc1ccc(S(=O)(=O)N2CCC(C(=O)N3CCc4ccccc4C3)CC2)cc1OC | 0.501 µM [rising, full curve, poor fit]
Clc1cccc(Cl)c1C(Nc1nncs1)Nc1nncs1 | 1.58 µM [falling, partial curve]
COc1ccc(-c2nn(C)c3sc(C(=O)N4CCOCC4)cc23)cc1OC | 15.8 µM [rising, partial curve]
CCCCn1c(NC(=O)c2ccc(F)cc2)c(C#N)c2nc3ccccc3nc21 | 10 µM [rising, partial curve]
COC(=O)CNC(=O)CCCCC(=O)NCC(=O)OC | 20 µM [falling, partial curve, poor fit]
CCCCc1ccc(NC(=O)N[C@H](C(=O)O)C(C)CC)cc1 (some centres undefined) | 10 µM [falling, partial curve]
COc1ccc(S(=O)(=O)N2CCCC(C(=O)NC3CCCCC3)C2)cc1 (centres undefined) | 5.01 µM [falling, single point]
CC1=C(C(=O)Nc2ccccc2)C(c2ccco2)C(C#N)=C(SCc2ccccc2)N1 (centres undefined) | 10 µM [falling, single point]
O=C(O)c1ccc2cccc(Cl)c2c1O | 12.6 µM [falling, partial curve]

Some values from the entries so far.
Entry of CCCCc1ccc(NC(=O)N[C@H](C(=O)O)C(C)CC)cc1 (some centres undefined) under AC50: 10 µM [falling, partial curve]
Entry of C(=C\c1ccccc1)/CN1CCN(c2ncnc3c2oc2ccccc23)CC1 under AC50: 10 µM [falling, partial curve]
Entry of COc1ccc(N2CCN(CCNC(=O)c3c(C)cc(=O)oc3C)CC2)cc1 under AC50: 0.158 µM [rising, partial curve, poor fit]
Entry of CC(=O)NC(CCS(C)(=O)=O)C(=O)Nc1c(F)cccc1F (centres undefined) under AC50: 1.26 µM [falling, partial curve]
